# Test results taken from PubChem BioAssay AID1439 (NMMLSC, 2008).
# Sequences of proteins named here, by UniProt entry; tags and fusion partners are left off.
# UniProt P09471, whole entry, looked up: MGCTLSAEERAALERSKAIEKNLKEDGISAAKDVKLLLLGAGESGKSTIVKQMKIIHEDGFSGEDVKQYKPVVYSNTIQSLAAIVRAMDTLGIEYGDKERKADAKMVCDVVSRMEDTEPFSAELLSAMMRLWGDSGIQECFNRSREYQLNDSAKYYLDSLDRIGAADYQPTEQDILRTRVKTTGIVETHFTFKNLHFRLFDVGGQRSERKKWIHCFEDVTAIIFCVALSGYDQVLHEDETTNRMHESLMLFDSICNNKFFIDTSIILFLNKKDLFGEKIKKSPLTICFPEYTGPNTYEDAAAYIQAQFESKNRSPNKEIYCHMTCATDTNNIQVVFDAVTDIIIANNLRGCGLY
# About 770 (0.35%) of roughly 220,000 compounds were called active. Inconclusive results, whose numbers are uncertain, are shown with a selection of clear calls. Cut-off read from the data, not from the text of the source: active = binding response below about 49% or above about 150%; inconclusive = no clear call, values can overlap the other calls; inactive = in between.
# Molecular target: Guanine nucleotide-binding protein G(o) subunit alpha (Homo sapiens) (UniProt P09471)
# Assay: RGS7-Galphao binding modulators, primary screen, biochemical, multiplexed bead flow cytometry (AID 1439);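 note: fluorescent Galphao held in activated GDP-AlF4 state binding bead-coupled RGS7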
# Conditions: at 10 µM, actives lie on both sides
row,SMILES,binding response (% of control)
1,O=S(=O)(c1ccc(N2CCOCC2)nc1)N(Cc1ccccn1)Cc1ccccn1,inconclusive: 106%
2,O=C(Nc1ccc2[nH]ccc2c1)c1ccccc1,inconclusive: 75.8%
3,COc1ccc(C(CC(=O)N2CCN(c3ccccc3)CC2)c2c(O)cc(OC)cc2OC)cc1 (stereo unspecified),inconclusive: 101%
4,OCCN(CCO)c1nc2ccccc2[nH]1,inconclusive: 162%
5,CCCCC1=CC2=CC(=O)C(C)(OC(=O)CC)C(=O)C2=CN1CCN1CCOCC1 (stereo unspecified),inconclusive: 69%
6,Cc1ccc(C)c(N2CCN(c3ccncc3N)CC2)c1,inconclusive: 115%
7,Cc1ccc2[nH]c(=O)c(CN(C(=O)c3cccc([N+](=O)[O-])c3)C(C)C)cc2c1,inconclusive: 237%
8,CCCCC(CC)CNC(=O)C(=O)c1ccccc1NC(C)=O (stereo unspecified),inactive: 101%
9,Cc1cc(C(F)(F)F)nn1CC(=O)NCc1cccs1,inactive: 92.9%
10,CC1CCc2c(C(=O)NCc3ccco3)csc2C1 (stereo unspecified),inconclusive: 73%
11,C=C(C)C(=O)Nc1cccnc1Oc1ccc(F)cc1F,inconclusive: 84.8%
12,CC(=O)c1ccc(NC(=O)C(C)n2c3ccccc3c3nc(=O)cc(C)n32)cc1 (stereo unspecified),inconclusive: 103%
13,CCCCC(=O)Nc1ccc2c(c1)nc1n2CCN(CCOC)C1,inconclusive: 294%
14,Cc1cc(C)n2nc(SCC(=O)c3cccs3)nc2n1,inconclusive: 95.6%
15,CC(=O)Nc1sc2c(c1C#N)CCC2,inconclusive: 95.7%
16,S=c1[nH]nc(Nc2cccc3ccccc23)s1,inconclusive: 129%
17,Cc1cc(=O)[nH]c(SCC(=O)NCC2CCCO2)n1 (stereo unspecified),inconclusive: 88%
18,CCOc1cc(NC(=S)Nc2ccccc2OC)c(OCC)cc1NC(=O)c1ccccc1C,inactive: 98.1%
19,CCOc1cc(N2CCOCC2)c(OCC)cc1NC(=O)CN1C(=O)NC(CC(C)C)C1=O (stereo unspecified),inconclusive: 109%
20,O=C(c1ccncc1)c1ccc([N+](=O)[O-])cc1,inconclusive: 103%
21,N#Cc1ccsc1NC(=O)CN1CCOCC1,inconclusive: -16.8%
22,Cc1cc(N)n(-c2ccc(S(N)(=O)=O)cc2[N+](=O)[O-])n1,inconclusive: 83.2%
23,CCC(C)N1C(=O)/C(=C/c2c(NCCCOC(C)C)nc3c(C)cccn3c2=O)SC1=S (stereo unspecified),inactive: 107%
24,CCOCCCn1c(SCC(=O)Nc2cccc(S(=O)(=O)NC3=NCCCCC3)c2)nc2ccccc2c1=O,inconclusive: 81.6%
25,O=C(N/N=C/c1cccc(Cl)c1)C(c1ccncc1)N1CCOCC1 (stereo unspecified),inconclusive: 94.5%
26,Cc1nnsc1C(=O)NNc1ccc(C(C)(C)C)cc1,inconclusive: 87.8%

# Pulled by compound from above:
row,SMILES,binding response (% of control)
7,Cc1ccc2[nH]c(=O)c(CN(C(=O)c3cccc([N+](=O)[O-])c3)C(C)C)cc2c1,inconclusive: 237%
8,CCCCC(CC)CNC(=O)C(=O)c1ccccc1NC(C)=O (stereo unspecified),inactive: 101%
